According to publication PMC10561026:
Results are given in words; binding and its absence hold for the method and conditions named. Some entries that bind do so weakly or less than the wild type.

The chains behind the UniProt entries cited, without tags or fusion partners. Where a name states a change or a piece, a line headed by the entry shows the natural chain unless it says otherwise.
UniProt P0A9X4: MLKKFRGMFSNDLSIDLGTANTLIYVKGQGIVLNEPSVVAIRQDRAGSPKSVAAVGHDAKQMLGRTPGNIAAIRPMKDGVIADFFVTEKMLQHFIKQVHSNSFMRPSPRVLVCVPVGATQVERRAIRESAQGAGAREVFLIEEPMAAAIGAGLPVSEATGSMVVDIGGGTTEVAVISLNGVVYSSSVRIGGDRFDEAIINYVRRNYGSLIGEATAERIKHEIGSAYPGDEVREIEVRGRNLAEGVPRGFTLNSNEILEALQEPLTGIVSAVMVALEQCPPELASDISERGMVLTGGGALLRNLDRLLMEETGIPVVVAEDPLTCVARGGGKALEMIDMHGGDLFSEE
UniProt P02916: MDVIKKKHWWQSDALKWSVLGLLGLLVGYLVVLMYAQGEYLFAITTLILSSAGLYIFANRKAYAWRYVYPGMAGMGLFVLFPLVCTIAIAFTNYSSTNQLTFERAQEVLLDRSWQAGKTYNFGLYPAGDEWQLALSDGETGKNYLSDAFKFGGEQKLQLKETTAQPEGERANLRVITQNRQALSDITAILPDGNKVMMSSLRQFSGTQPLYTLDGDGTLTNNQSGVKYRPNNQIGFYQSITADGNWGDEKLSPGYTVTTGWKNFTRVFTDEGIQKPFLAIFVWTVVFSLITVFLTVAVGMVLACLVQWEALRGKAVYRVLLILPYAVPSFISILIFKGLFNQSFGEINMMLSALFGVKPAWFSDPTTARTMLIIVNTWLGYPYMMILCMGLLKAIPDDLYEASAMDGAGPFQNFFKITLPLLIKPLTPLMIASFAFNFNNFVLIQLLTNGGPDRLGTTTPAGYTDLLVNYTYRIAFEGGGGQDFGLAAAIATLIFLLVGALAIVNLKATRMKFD

Legend:
Test in all cases: two-hybrid; bacterial two-hybrid (BACTH): proteins fused to the T18 or T25 fragment of adenylate cyclase in DHM1 cells, streaked on a plate with X-gal, 37°C overnight; Miller units, average of two independent experiments
MreB (E. coli) = MreB (E. coli) (UniProt P0A9X4)
MreC (E. coli) = biological target: T1, MreC (E. coli) (UniProt P16926)
T1 sequence: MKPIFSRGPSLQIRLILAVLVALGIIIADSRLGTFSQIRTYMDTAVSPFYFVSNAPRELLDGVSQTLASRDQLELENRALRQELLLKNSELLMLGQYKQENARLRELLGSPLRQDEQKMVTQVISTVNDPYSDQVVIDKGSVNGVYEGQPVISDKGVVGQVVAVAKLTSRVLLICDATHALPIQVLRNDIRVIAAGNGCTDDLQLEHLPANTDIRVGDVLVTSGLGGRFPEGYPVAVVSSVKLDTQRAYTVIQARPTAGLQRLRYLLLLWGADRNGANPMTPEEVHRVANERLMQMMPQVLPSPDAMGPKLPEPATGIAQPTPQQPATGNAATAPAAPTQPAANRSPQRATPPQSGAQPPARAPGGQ

[1] = biological target: RMR, chimeric protein of RodZ and MalF in which the transmembrane domain of RodZ (RodZ 112-133) is replaced with the first transmembrane domain of MalF (MalF 17-39) (E. coli) (UniProt P27434+P02916)
RodA (E. coli) = biological target: T2, RodA (E. coli) (UniProt P0ABG7)
T2 sequence: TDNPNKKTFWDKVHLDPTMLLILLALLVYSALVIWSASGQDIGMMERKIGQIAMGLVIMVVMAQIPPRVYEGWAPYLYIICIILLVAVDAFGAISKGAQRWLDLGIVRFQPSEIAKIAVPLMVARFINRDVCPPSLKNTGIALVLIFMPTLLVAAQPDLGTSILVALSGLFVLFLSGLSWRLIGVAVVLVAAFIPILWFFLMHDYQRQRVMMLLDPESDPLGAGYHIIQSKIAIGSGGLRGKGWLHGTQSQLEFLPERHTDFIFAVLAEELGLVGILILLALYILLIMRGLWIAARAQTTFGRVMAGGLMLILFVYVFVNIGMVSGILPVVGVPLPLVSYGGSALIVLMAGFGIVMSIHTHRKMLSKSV

[2] = biological target: T3, penicillin-binding protein (PBP) 2 (E. coli) (UniProt P0AD65)
T3 sequence: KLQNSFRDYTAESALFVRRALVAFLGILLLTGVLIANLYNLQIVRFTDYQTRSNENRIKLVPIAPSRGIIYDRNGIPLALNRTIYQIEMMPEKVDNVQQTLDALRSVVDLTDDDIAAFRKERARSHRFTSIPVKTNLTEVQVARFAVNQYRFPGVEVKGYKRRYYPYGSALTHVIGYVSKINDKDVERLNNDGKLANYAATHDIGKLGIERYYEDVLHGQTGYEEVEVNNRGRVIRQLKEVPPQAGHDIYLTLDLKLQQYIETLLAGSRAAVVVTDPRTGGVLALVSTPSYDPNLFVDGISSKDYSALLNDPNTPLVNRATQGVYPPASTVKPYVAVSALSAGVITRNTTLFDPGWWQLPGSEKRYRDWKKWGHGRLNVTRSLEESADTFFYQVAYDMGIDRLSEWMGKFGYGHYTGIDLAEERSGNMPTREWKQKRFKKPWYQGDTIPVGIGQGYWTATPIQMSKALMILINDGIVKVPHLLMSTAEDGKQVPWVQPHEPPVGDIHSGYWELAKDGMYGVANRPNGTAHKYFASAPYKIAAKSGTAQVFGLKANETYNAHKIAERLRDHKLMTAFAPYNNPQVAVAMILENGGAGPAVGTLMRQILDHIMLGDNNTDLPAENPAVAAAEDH

RodZ (E. coli) = RodZ (E. coli) (UniProt P27434)

binding (MreB (E. coli)) | binding (MreC (E. coli)) | binding [1] | binding (RodA (E. coli)) | binding [2] | binding (RodZ (E. coli)) | Substance
binds | binds | binds | binds | no binding |  | RMR, chimeric protein of RodZ and MalF in which the transmembrane domain of RodZ (RodZ 112-133) is replaced with the first transmembrane domain of MalF (MalF 17-39) (from UniProt P27434 2-111; P02916 17-39; P27434 134-337)
binds | binds |  | binds | no binding | binds | RodZ (from UniProt P27434 1-337)
